# This is one part of the list. These are further read-outs of the screen, such as a control signal, another cell line or another target. No call is given for them. The list favours compounds with an active or inconclusive main result. Words in brackets tell the shape of the fitted curve; partial curves, single points and poor fits give uncertain potencies.
# Test: qHTS Assay to Find Inhibitors of Chronic Active B-Cell Receptor Signaling
# Settings: ABC-DLBCL IkBa-CBG/CBR reporter, luminescence ratio (green luciferase fused to IkBa over red control in TMD8 lymphoma cells), 4 h
# Outline: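 Cell line TMD8 (human ABC DLBCL), stably expressing tet-inducible CBG68-IkBa fusion and CBR; IMDM/0.5% FBS; cpd up to 46 uM; dox induction, 4 h, 37C/5% CO2; dual luminescence; green/red ratio; MG132 control.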
# [1] = measured here: CBR red luminescence, cell number
# [2] = measured here: IkBa-CBG green luminescence
SMILES,AC50 [1],AC50 [2]
Cc1cc(C)n(/N=C\c2c(O)ccc3ccccc23)c(=O)c1C(N)=O,"0.00461 µM [falling, full curve, poor fit]",–
CCCn1c(O)c(N=Nc2ccc3ccccc3n2)c2ccccc21,"0.103 µM [falling, full curve, poor fit]",–
CCOC(=O)c1ccc(NS(=O)(=O)CC)cc1,"3.66 µM [rising, single point]",–
Cc1ccc([N+](=O)[O-])c(OCCN2CCNCC2)c1,"0.092 µM [falling, full curve, poor fit]",–
O=C(Nc1ccccc1)Nc1cccc(-c2cn3cccnc3n2)c1,"35.5 µM [rising, single point]",–
O=C(NCCc1cn2ccccc2n1)c1ccccc1F,"20 µM [falling, partial curve, poor fit]",–
COc1cc(CNCc2c[nH]c3ccccc23)cc(OC)c1,"15.8 µM [falling, partial curve, poor fit]",–
COc1cc(CCC(C)=O)ccc1OC(=O)c1c(F)cccc1Cl,"2.82 µM [rising, full curve, poor fit]",–
CCOc1ccc(CN(C)C(=O)c2cccc(S(=O)(=O)N3CCCC3)c2)cc1OC,"29.1 µM [rising, single point]",–
O=C(NCCS(=O)(=O)N1CCN(c2ccccc2)CC1)c1cccc(F)c1,"14.6 µM [falling, partial curve]",–
Cc1ccc2nc(SCC(=O)Nc3ccc(F)cc3F)nc(=O)n2c1,"16.4 µM [falling, partial curve]",–
CC(=O)Nc1ccccc1NC(=O)C/C(C)=N/NC(=O)C(=O)N1CCCCC1,"1.26 µM [rising, partial curve, poor fit]",–
O=C1c2cccc(OCC(=O)N3CCCc4ccccc43)c2CCN1Cc1ccccc1,"20.6 µM [falling, partial curve]",–
COc1ccccc1CC(=O)Nc1ccon1,"0.355 µM [rising, full curve, poor fit]",–
NC(=O)c1oc2ccccc2c1NC(=O)CS(=O)(=O)c1ccccc1,"8.91 µM [falling, partial curve, poor fit]",–
COCc1cc(N2CCOCC2)nc(SCc2ccc(Cl)cc2)n1,"0.631 µM [falling, full curve, poor fit]",–
CC1CCN(S(=O)(=O)c2cccc(C(=O)N3CCN(c4ccc(F)cc4)CC3)c2)CC1,"35.5 µM [falling, single point]",–
O=C(NCCCn1ccnc1)C(F)(F)C(F)(F)C(=O)NCCCn1ccnc1,"20.6 µM [rising, partial curve, poor fit]",–
CC(=O)Nc1ccc(-c2nc3c(C)cccc3[nH]2)cc1,"29.1 µM [falling, single point]",–
COc1c(O)cc(O)c2c(=O)cc(-c3ccccc3)oc12,"9.2 µM [falling, partial curve, poor fit]",–
CCn1c2ccccc2c2cc(/C=N/NC(=O)c3cccc(C)c3)ccc21,"0.794 µM [falling, full curve, poor fit]",–

# Molecules listed so far that have a Cl atom (two):
SMILES,AC50 [1],AC50 [2]
COc1cc(CCC(C)=O)ccc1OC(=O)c1c(F)cccc1Cl,"2.82 µM [rising, full curve, poor fit]",–
COCc1cc(N2CCOCC2)nc(SCc2ccc(Cl)cc2)n1,"0.631 µM [falling, full curve, poor fit]",–

# Carrying on:

SMILES,AC50 [1],AC50 [2]
Cc1ccc(CNC(=O)c2ccc3c(=O)n(CCCN4CCCC4=O)c(=S)[nH]c3c2)cc1,"0.517 µM [rising, full curve, poor fit]",–
COc1ccc2cc3c(N)nn(C(=O)c4ccccc4[N+](=O)[O-])c3nc2c1,"2.59 µM [falling, partial curve]",–
O=C(O)c1ccc2c(c1)OCCO2,"0.411 µM [rising, partial curve, poor fit]",–
Cc1nnc(SCCN2CCOCC2)n1-c1cccc(Cl)c1,"6.51 µM [rising, single point]",–
N#C/C(=C\c1cccnc1)C(=O)Nc1cccc(Cl)c1,"35.5 µM [falling, single point]",–
COc1ccccc1CNS(=O)(=O)CC12CCC(CC1=O)C2(C)C (centres undefined),"35.5 µM [rising, single point]",–
Cc1cccc(NC(=O)N2C3CCCC2CC(NC(=O)C(C)(C)C)C3)c1 (centres undefined),"14.1 µM [rising, single point]",–
S=c1[nH]c2ccc(Cl)cc2s1,"11.2 µM [rising, single point]","17.8 µM [falling, partial curve, poor fit]"
Cc1cc(C)c(C(=O)N2CCCC(N3CCN(c4cccc(C(F)(F)F)c4)CC3)C2)o1 (centres undefined),"20 µM [falling, partial curve, poor fit]",–
C=CCn1c(-c2ccc(Cl)cc2)cnc1SC(C)C(=O)NC(N)=O (centres undefined),"11.2 µM [falling, partial curve]",–
Cc1ccnc(NC(=O)CSc2ccccn2)c1,"14.1 µM [falling, single point]",–
CCOc1ccccc1Nc1cc(C)nc2nc(C)nn12,"8.2 µM [rising, partial curve, poor fit]",–
CN1CCC(N(C)CC(O)c2ccccc2)CC1 (centres undefined),"15.8 µM [falling, partial curve, poor fit]",–
Nc1ncnc2c1ncn2[C@@H]1O[C@H](CNC(=O)[C@@H](N)Cc2ccc(C(F)(F)F)cc2)[C@@H](O)[C@H]1O,"0.92 µM [rising, full curve, poor fit]",–
Cc1nn(C)c(Cl)c1CN1CCN(C2CCCC2)C(CCO)C1 (centres undefined),"35.5 µM [falling, single point]",–
Cc1cccc(C2=NC(C(F)(F)F)(C(F)(F)F)c3c(n(-c4ccc(F)cc4)c(=O)[nH]c3=O)N2)c1,"23.1 µM [rising, partial curve, poor fit]",–
Cc1ccccc1OCCNC(=O)CSc1ccc(C(F)(F)F)cc1[N+](=O)[O-],"18.4 µM [falling, single point]",–
Cc1cc(NC(=O)COC(=O)C(Nc2ccc(C(F)(F)F)cc2Cl)C(C)C)no1 (centres undefined),"20.6 µM [falling, single point]",–
CCOc1ccc2[nH]cc(S(=O)(=O)c3ccc(F)cc3)c(=O)c2c1,"6.51 µM [falling, single point]",–
CC(=O)Oc1c(C)c2c3c(c1OC(C)=O)[C@@H](C)CC[C@@H]3[C@@H](C)C[C@H]2C=C(C)C,–,"11.6 µM [rising, partial curve, poor fit]"
CC(=O)Oc1ccc2c(c1)cc(C)n2C,"1.16 µM [falling, partial curve, poor fit]",–

# A different layout for part of the listing above.
SMILES	AC50 [1]	AC50 [2]
Cc1ccccc1OCCNC(=O)CSc1ccc(C(F)(F)F)cc1[N+](=O)[O-]	18.4 µM [falling, single point]	–
Cc1cc(NC(=O)COC(=O)C(Nc2ccc(C(F)(F)F)cc2Cl)C(C)C)no1 (centres undefined)	20.6 µM [falling, single point]	–

# Carrying on.

SMILES,AC50 [1],AC50 [2]
O=C1c2ccccc2C(=O)N1CCOCCN1C(=O)c2ccccc2C1=O,"14.1 µM [rising, partial curve, poor fit]",–
CCOc1ccc(S(=O)(=O)NCCC(=O)NCc2ccc(OC)c(OC)c2)cc1,"3.66 µM [rising, partial curve, poor fit]",–
Cc1ccc(OCc2n[nH]c(=S)n2-c2ccc(C)cc2)cc1,"2.82 µM [rising, partial curve, poor fit]",–
Cc1ccc(NC(=S)N(Cc2cccs2)Cc2cc3cccc(C)c3[nH]c2=O)cc1,"1.46 µM [rising, full curve, poor fit]",–
O=C(NNC(=O)c1ccccc1O)c1ccc(Cl)c(S(=O)(=O)N2CCCCC2)c1,"25.9 µM [falling, single point]",–
CCn1cnc2c(NCCc3cccnc3)nc(C#N)nc21,"5.17 µM [falling, single point]",–
CCOCCn1c(N2CCN(c3ccccc3)CC2)nc2c1c(=O)n(C)c(=O)n2C,"0.13 µM [falling, full curve, poor fit]",–
COc1ccc(N2CCN(C(=O)CSc3nnc4c(C)cc5ccc(C)c(C)c5n34)CC2)cc1,"4.11 µM [rising, single point]",–
O=S(=O)(Cc1ccccc1)N1CCN(Cc2ccc(Br)cc2)CC1,"8.91 µM [falling, partial curve, poor fit]",–
O=C(N/N=C/c1ccc(O)cc1)/C(=C/c1ccc([N+](=O)[O-])cc1)NC(=O)c1ccccc1,"14.6 µM [falling, single point]",–
Nc1cccc(/C=C/c2ccncc2)c1,"17.8 µM [falling, partial curve, poor fit]",–
Cc1cc(Cl)ccc1OCC(=O)N(Cc1ccco1)C1CCS(=O)(=O)C1 (centres undefined),"12.6 µM [falling, single point]",–
Cc1cc(=O)[nH]c(SCC(=O)c2ccc(F)c(C)c2)n1,"11.2 µM [falling, partial curve, poor fit]",–
O=C(Nc1ncc([N+](=O)[O-])s1)c1ccc2c(c1)OCO2,"0.0891 µM [falling, full curve, poor fit]",–
Cc1nc(SCc2cccc(Oc3ccccc3)c2)n[nH]1,"8.91 µM [rising, partial curve, poor fit]",–
N=c1c2c(-c3ccccc3)c(-c3ccccc3)n(Cc3ccccc3)c2ncn1CCCO,"8.91 µM [falling, partial curve, poor fit]",–
CCC1(C)Cc2ccccc2-c2nc(NCCCO)[nH]c(=O)c21 (centres undefined),"35.5 µM [falling, single point]",–
Cc1cccc(-c2noc(-c3ccc(F)cc3)n2)c1,"32.6 µM [falling, single point]",–
Cc1cccc(NC(=O)CS(=O)CC(=O)Nc2cnc3ccccc3c2)c1C (centres undefined),"8.91 µM [falling, partial curve, poor fit]",–
Cc1cc(C)n2nc(C(=O)NCc3cccc(C(F)(F)F)c3)nc2n1,"35.5 µM [rising, single point]",–
NS(=O)(=O)c1cccc(Nc2nc3ccccc3nc2NS(=O)(=O)c2ccc(Cl)cc2)c1,"23.1 µM [rising, single point]",–
